Taken from: PubChem BioAssay AID652272 (Drosophila RNAi Screening Center, 2013)

Assay: 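Genome-wide knock-down search for components of Hedgehog signalling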 (primary screen)
Cell system: Drosophila clone 8 (Cl8) cells
Reagents: long dsRNA against Drosophila genes
Read-out: 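Firefly light from a Hedgehog-responsive ptc promoter reporter and Renilla reference light, both read on a plate reader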
Reading the numbers: firefly Hh reporter signal: higher = more ptc reporter light; Renilla reference signal: higher = more Renilla control light
Active means: 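Called a hit if the two-replicate mean z-score lies below -2 or above +3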
Calls: active = hit: reporter lowered or raised; inactive = not a hit
The deposit covers about 21,000 reagents; below is an unselected part of those with a known target gene and a result. Of all reagents, 503 (2.4%) are marked active. 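Raw plate light values, not normalised; calls rest on replicate z-scores that were not deposited; hits include reporter decreases as well as increases.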 Entries without a mark were called inactive. Names joined by + are all predicted targets of the reagent. Not stated in the record: the amount of reagent, the time to read-out.

no.	predicted target	amplicon	firefly Hh reporter signal, replicate 1	firefly Hh reporter signal, replicate 2	firefly Hh reporter signal, replicate 3	Renilla reference signal, replicate 1	Renilla reference signal, replicate 2
1	14-3-3epsilon	DRSC16370	5.69e5	70672		26790	1539
2	ODA-Dnal1	DRSC07270	1.79e5	64628		4097	5241
3	Spn28F	DRSC03615	90413	40973		2512	4709
4	MRG15	DRSC16731	82501	82864		3473	3200
5	InR	DRSC16717	7.95e5	1.70e5		39105	2765
6	deltaCOP	DRSC18760	46501 (active)	26931		2086	1639
7	CG1288	DRSC12538	67837	90597		2738	2528
8	Rab3GAP1	DRSC00291	1.54e5	96073		2924	2176
9	Rab3GAP1	DRSC00703	1.65e5	1.12e5		3499	2986
10	CG1492	DRSC19605	1.58e5 (active)	58028		3538	901
11	CG13898	DRSC08368	76568	53991		3093	3702
12	meep	DRSC07948	1.47e5	2.21e5		3836	7872
13	Grl62a	DRSC07963	1.20e5	1.99e5		3558	8908
14	Pdfr	DRSC18614	82000	2.03e5		2803	8349
15	CG12766	DRSC08295	1.06e5	54538		4070	5456
16	CG14346	DRSC00376	1.15e5	74136		2711	2240
17	CG10803	DRSC17763	1.86e5	1.02e5		3931	3367
18	RpL13	DRSC03416	2.33e5 (active)	28011		2544	2544
19	Osi16	DRSC12135	68275	1.06e5		2832	3221
20	CG7514	DRSC08597	33619	54320		4108	3747
21	CG12576	DRSC20621	55249	1.38e5		1258	6006
22	BBS8	DRSC00360	1.47e5	1.33e5		3189	3241
23	tbrd-2	DRSC07020	62121	66118		1645	4233
24	CG43316	DRSC06297	63301	33321		1568	2684
25	Obp99a	DRSC15303	39802	55488		2037	2449
26	meng	DRSC02134	85474	53126		2336	4793
27	CG7213	DRSC10787	67207	58835		6658	4218
28	CG6230	DRSC01989	66716	45763		3056	2109
29	CG5731	DRSC02883	94994	80023		2673	6653
30	CG42685	DRSC01971	2.18e5	4.44e5	72674	5168	27152
31	CG31826	DRSC03357	96924	57735		2662	4838
32	Ret	DRSC03409	59595	87731		2819	3429
33	Ret	DRSC03410	78835	72481		1938	5906
34	CG15073	DRSC06506	1.23e5	72731		3059	4845
35	CG12480	DRSC19460	1.06e5	6.86e5	4.06e5	2502	2784
36	Neb-cGP	DRSC17991	1.28e5	2.94e5		3897	12081
37	CrebB	DRSC20232	67587	1.24e5		2102	6498
38	AlaRS-m	DRSC09660	1.16e5	46396		4300	1808
39	CG10348	DRSC02043	1.58e5	89416		3671	8821
40	snoRNA:Me28S-A982b + Uhg4 + snoRNA:Me28S-G3255a + 1 more	DRSC05143	1.17e5	2.73e5		3361	11565
41	CG5854	DRSC15894	5.98e5	79527		3478	3478
42	CG16741	DRSC06622	94035	45159		2036	2573
43	Naam	DRSC16252	1.05e6	1.96e5		46963	5905
44	CG7900	DRSC16336	1.54e5	7.90e5	1.64e5	4784	5526
45	CG13114	DRSC02212	1.33e5	97195		3557	7393
46	His1:CG33816 + His1:CG33828 + His1:CG33819 + 21 more	DRSC21266	44859	1.52e5		1434	6569
47	lush	DRSC11364	1.06e5	99652		3689	2752
48	DUBAI	DRSC07281	77475	29659		3188	1306
49	Cpr65Eb	DRSC11026	54848	62954		5511	5203
50	Vsp37A	DRSC18794	98247	1.69e5		3367	6202
51	CG33282	DRSC00422	1.02e5	45881		2578	5028
52	PAN2	DRSC07115	99184	69003		4820	3040
53	CG17134	DRSC02583	82285	56807		2525	5781
54	alpha-Est4	DRSC12616	59392	79832		1585	2433
55	Send1	DRSC00482	95588	86528		2371	1960
56	Bub3	DRSC14168	86813	67138		2454	2249
57	Myb	DRSC20260	84474	50874		2336	1197
58	Gpxl	DRSC06538	68572	58729		1172	4166
59	Socs36E	DRSC02455	1.18e5	5.39e5	1.05e5	4676	29808
60	CG9135	DRSC03144	73844	75075		3634	3498
61	lbl	DRSC16986	6.80e5	1.67e5		35479	3418
62	CG12605	DRSC08286	67384	54802		2050	3792
63	CG7907	DRSC16339	3.82e5	1.69e5		20512	3581
64	CG10730	DRSC02102	96864	67889		2816	5889
65	Hgsnat	DRSC18405	1.14e5	77046		2451	1636
66	CG11018	DRSC06024	57373	62273		2666	2787
67	CG15480	DRSC02490	2.12e5	84907		4713	6925
68	Pten	DRSC03402	85181	71025		2125	5453
69	hrg	DRSC07502	1.00e5	47675		2818	3829
70	CG11279	DRSC09837	51377	55250	43297	4192	3008
71	Nemp	DRSC20206	1.01e5	95824		1714	2384
72	dsx-c73A	DRSC09435	2.08e5			4944	
73	dsx-c73A	DRSC09914	88057			5723	2644
74	dsx-c73A	DRSC10429	1.60e5			5826	4733

7 of these entries, set out differently.
{"predicted target": "snoRNA:Me28S-A982b + Uhg4 + snoRNA:Me28S-G3255a + 1 more", "amplicon": "DRSC05143", "firefly Hh reporter signal, replicate 1": 1.17e5, "firefly Hh reporter signal, replicate 2": 2.73e5, "Renilla reference signal, replicate 1": 3361, "Renilla reference signal, replicate 2": 11565}
{"predicted target": "CG5854", "amplicon": "DRSC15894", "firefly Hh reporter signal, replicate 1": 5.98e5, "firefly Hh reporter signal, replicate 2": 79527, "Renilla reference signal, replicate 1": 3478, "Renilla reference signal, replicate 2": 3478}
{"predicted target": "CG16741", "amplicon": "DRSC06622", "firefly Hh reporter signal, replicate 1": 94035, "firefly Hh reporter signal, replicate 2": 45159, "Renilla reference signal, replicate 1": 2036, "Renilla reference signal, replicate 2": 2573}
{"predicted target": "Naam", "amplicon": "DRSC16252", "firefly Hh reporter signal, replicate 1": 1.05e6, "firefly Hh reporter signal, replicate 2": 1.96e5, "Renilla reference signal, replicate 1": 46963, "Renilla reference signal, replicate 2": 5905}
{"predicted target": "CG7900", "amplicon": "DRSC16336", "firefly Hh reporter signal, replicate 1": 1.54e5, "firefly Hh reporter signal, replicate 2": 7.90e5, "firefly Hh reporter signal, replicate 3": 1.64e5, "Renilla reference signal, replicate 1": 4784, "Renilla reference signal, replicate 2": 5526}
{"predicted target": "CG13114", "amplicon": "DRSC02212", "firefly Hh reporter signal, replicate 1": 1.33e5, "firefly Hh reporter signal, replicate 2": 97195, "Renilla reference signal, replicate 1": 3557, "Renilla reference signal, replicate 2": 7393}
{"predicted target": "His1:CG33816 + His1:CG33828 + His1:CG33819 + 21 more", "amplicon": "DRSC21266", "firefly Hh reporter signal, replicate 1": 44859, "firefly Hh reporter signal, replicate 2": 1.52e5, "Renilla reference signal, replicate 1": 1434, "Renilla reference signal, replicate 2": 6569}
